Sequences and labels used below:
B1: ZFP91 (protein, UniProt Q96JP5 2-570, looked up)
E3 ubiquitin-protein ligase …: PGETEEPRPPEQQDQEGGEAAKAAPEEPQQRPPEAVAAAPAGTTSSRVLRGGRDRGRAAAAAAAAAVSRRRKAEYPRRRRSSPSARPPDVPGQQPQAAKSPSPVQGKKSPRLLCIEKVTTDKDPKEEKEEEDDSALPQEVSIAASRPSRGWRSSRTSVSRHRDTENTRSSRSKTGSLQLICKSEPNTDQLDYDVGEEHQSPGGISSEEEEEEEEEMLISEEEIPFKDDPRDETYKPHLERETPKPRRKSGKVKEEKEKKEIKVEVEVEVKEEENEIREDEEPPRKRGRRRKDDKSPRLPKRRKKPPIQYVRCEMEGCGTVLAHPRYLQHHIKYQHLLKKKYVCPHPSCGRLFRLQKQLLRHAKHHTDQRDYICEYCARAFKSSHNLAVHRMIHTGEKPLQCEICGFTCRQKASLNWHMKKHDADSFYQFSCNICGKKFEKKDSVVAHKAKSHPEVLIAEALAANAGALITSTDILGTNPESLTQPSDGQGLPLLPEPLGNSTSGECLLLEAEGMSKSYCSGTERVSLMADGKIFVGSGSSGGTEGLVMNSDILGATTEVLIEDSDSAGP
B2: MAP1S (protein, UniProt Q66K74 1-1059, looked up)
Microtubule-associated …: MAAVAGSGAAAAPSSLLLVVGSEFGSPGLLTYVLEELERGIRSWDVDPGVCNLDEQLKVFVSRHSATFSSIVKGQRSLHHRGDNLETLVLLNPSDKSLYDELRNLLLDPASHKLLVLAGPCLEETGELLLQTGGFSPHHFLQVLKDREIRDILATTPPPVQPPILTITCPTFGDWAQLAPAVPGLQGALRLQLRLNPPAQLPNSEGLCEFLEYVAESLEPPSPFELLEPPTSGGFLRLGRPCCYIFPGGLGDAAFFAVNGFTVLVNGGSNPKSSFWKLVRHLDRVDAVLVTHPGADSLPGLNSLLRRKLAERSEVAAGGGSWDDRLRRLISPNLGVVFFNACEAASRLARGEDEAELALSLLAQLGITPLPLSRGPVPAKPTVLFEKMGVGRLDMYVLHPPSAGAERTLASVCALLVWHPAGPGEKVVRVLFPGCTPPACLLDGLVRLQHLRFLREPVVTPQDLEGPGRAESKESVGSRDSSKREGLLATHPRPGQERPGVARKEPARAEAPRKTEKEAKTPRELKKDPKPSVSRTQPREVRRAASSVPNLKKTNAQAAPKPRKAPSTSHSGFPPVANGPRSPPSLRCGEASPPSAACGSPASQLVATPSLELGPIPAGEEKALELPLAASSIPRPRTPSPESHRSPAEGSERLSLSPLRGGEAGPDASPTVTTPTVTTPSLPAEVGSPHSTEVDESLSVSFEQVLPPSAPTSEAGLSLPLRGPRARRSASPHDVDLCLVSPCEFEHRKAVPMAPAPASPGSSNDSSARSQERAGGLGAEETPPTSVSESLPTLSDSDPVPLAPGAADSDEDTEGFGVPRHDPLPDPLKVPPPLPDPSSICMVDPEMLPPKTARQTENVSRTRKPLARPNSRAAAPKATPVAAAKTKGLAGGDRASRPLSARSEPSEKGGRAPLSRKSSTPKTATRGPSGSASSRPGVSATPPKSPVYLDLAYLPSGSSAHLVDEEFFQRVRALCYVISGQDQRKEEGMRAVLDALLASKQHWDRDLQVTLIPTFDSVAMHTWYAETHARHQALGITVLGSNSMVSMQDDAFPACKVEF
B3: MOCS1 (protein, UniProt Q9NZB8 1-636, looked up)
Molybdenum cofactor …: MAARPLSRMLRRLLRSSARSCSSGAPVTQPCPGESARAASEEVSRRRQFLREHAAPFSAFLTDSFGRQHSYLRISLTEKCNLRCQYCMPEEGVPLTPKANLLTTEEILTLARLFVKEGIDKIRLTGGEPLIRPDVVDIVAQLQRLEGLRTIGVTTNGINLARLLPQLQKAGLSAINISLDTLVPAKFEFIVRRKGFHKVMEGIHKAIELGYNPVKVNCVVMRGLNEDELLDFAALTEGLPLDVRFIEYMPFDGNKWNFKKMVSYKEMLDTVRQQWPELEKVPEEESSTAKAFKIPGFQGQISFITSMSEHFCGTCNRLRITADGNLKVCLFGNSEVSLRDHLRAGASEQELLRIIGAAVGRKKRQHAGMFSISQMKNRPMILIELFLMFPNSPPANPSIFSWDPLHVQGLRPRMSFSSQVATLWKGCRVPQTPPLAQQRLGSGSFQRHYTSRADSDANSKCLSPGSWASAAPSGPQLTSEQLTHVDSEGRAAMVDVGRKPDTERVAVASAVVLLGPVAFKLVQQNQLKKGDALVVAQLAGVQAAKVTSQLIPLCHHVALSHIQVQLELDSTRHAVKIQASCRARGPTGVEMEALTSAAVAALTLYDMCKAVSRDIVLEEIKLISKTGGQRGDFHRA
B4: TRMT2A (protein, UniProt Q8IZ69 1-625, looked up)
tRNA …: MSENLDNEGPKPMESCGQESSSALSCPTVSVPPAAPAALEEVEKEGAGAATGPGPQPGLYSYIRDDLFTSEIFKLELQNVPRHASFSDVRRFLGRFGLQPHKTKLFGQPPCAFVTFRSAAERDKALRVLHGALWKGRPLSVRLARPKADPMARRRRQEGESEPPVTRVADVVTPLWTVPYAEQLERKQLECEQVLQKLAKEIGSTNRALLPWLLEQRHKHNKACCPLEGVRPSPQQTEYRNKCEFLVGVGVDGEDNTVGCRLGKYKGGTCAVAAPFDTVHIPEATKQVVKAFQEFIRSTPYSAYDPETYTGHWKQLTVRTSRRHQAMAIAYFHPQKLSPEELAELKTSLAQHFTAGPGRASGVTCLYFVEEGQRKTPSQEGLPLEHVAGDRCIHEDLLGLTFRISPHAFFQVNTPAAEVLYTVIQDWAQLDAGSMVLDVCCGTGTIGLALARKVKRVIGVELCPEAVEDARVNAQDNELSNVEFHCGRAEDLVPTLVSRLASQHLVAILDPPRAGLHSKVILAIRRAKNLRRLLYVSCNPRAAMGNFVDLCRAPSNRVKGIPFRPVKAVAVDLFPQTPHCEMLILFERVEHPNGTGVLGPHSPPAQPTPGPPDNTLQETGTFPSS
B5: DHRS13 (protein, UniProt Q6UX07 26-377, looked up)
Dehydrogenase/reductase SDR …: PPCGGMGNLRGRTAVVTGANSGIGKMTALELARRGARVVLACRSQERGEAAAFDLRQESGNNEVIFMALDLASLASVRAFATAFLSSEPRLDILIHNAGISSCGRTREAFNLLLRVNHIGPFLLTHLLLPCLKACAPSRVVVVASAAHCRGRLDFKRLDRPVVGWRQELRAYADTKLANVLFARELANQLEATGVTCYAAHPGPVNSELFLRHVPGWLRPLLRPLAWLVLRAPRGGAQTPLYCALQEGIEPLSGRYFANCHVEEVPPAARDDRAAHRLWEASKRLAGLGPGEDAEPDEDPQSEDSEAPSSLSTPHPEEPTVSQPYPSPQSSPDLSKMTHRIQAKVEPEIQLS
B6: FOXRED1 (protein, UniProt Q96CU9 1-486, looked up)
FAD-dependent oxidoreductase …: MIRRVLPHGMGRGLLTRRPGTRRGGFSLDWDGKVSEIKKKIKSILPGRSCDLLQDTSHLPPEHSDVVIVGGGVLGLSVAYWLKKLESRRGAIRVLVVERDHTYSQASTGLSVGGICQQFSLPENIQLSLFSASFLRNINEYLAVVDAPPLDLRFNPSGYLLLASEKDAAAMESNVKVQRQEGAKVSLMSPDQLRNKFPWINTEGVALASYGMEDEGWFDPWCLLQGLRRKVQSLGVLFCQGEVTRFVSSSQRMLTTDDKAVVLKRIHEVHVKMDRSLEYQPVECAIVINAAGAWSAQIAALAGVGEGPPGTLQGTKLPVEPRKRYVYVWHCPQGPGLETPLVADTSGAYFRREGLGSNYLGGRSPTEQEEPDPANLEVDHDFFQDKVWPHLALRVPAFETLKVQSAWAGYYDYNTFDQNGVVGPHPLVVNMYFATGFSGHGLQQAPGIGRAVAEMVLKGRFQTIDLSPFLFTRFYLGEKIQENNII
B7: FKBP8 (protein, UniProt Q14318 1-412, looked up)
Peptidyl-prolyl cis-trans …: MASCAEPSEPSAPLPAGVPPLEDFEVLDGVEDAEGEEEEEEEEEEEDDLSELPPLEDMGQPPAEEAEQPGALAREFLAAMEPEPAPAPAPEEWLDILGNGLLRKKTLVPGPPGSSRPVKGQVVTVHLQTSLENGTRVQEEPELVFTLGDCDVIQALDLSVPLMDVGETAMVTADSKYCYGPQGRSPYIPPHAALCLEVTLKTAVDGPDLEMLTGQERVALANRKRECGNAHYQRADFVLAANSYDLAIKAITSSAKVDMTFEEEAQLLQLKVKCLNNLAASQLKLDHYRAALRSCSLVLEHQPDNIKALFRKGKVLAQQGEYSEAIPILRAALKLEPSNKTIHAELSKLVKKHAAQRSTETALYRKMLGNPSRLPAKCPGKGAWSIPWKWLFGATAVALGGVALSVVIAARN
B8: PFKL (protein, UniProt P17858 2-780, looked up)
ATP-dependent …: AAVDLEKLRASGAGKAIGVLTSGGDAQGMNAAVRAVTRMGIYVGAKVFLIYEGYEGLVEGGENIKQANWLSVSNIIQLGGTIIGSARCKAFTTREGRRAAAYNLVQHGITNLCVIGGDGSLTGANIFRSEWGSLLEELVAEGKISETTARTYSHLNIAGLVGSIDNDFCGTDMTIGTDSALHRIMEVIDAITTTAQSHQRTFVLEVMGRHCGYLALVSALASGADWLFIPEAPPEDGWENFMCERLGETRSRGSRLNIIIIAEGAIDRNGKPISSSYVKDLVVQRLGFDTRVTVLGHVQRGGTPSAFDRILSSKMGMEAVMALLEATPDTPACVVTLSGNQSVRLPLMECVQMTKEVQKAMDDKRFDEATQLRGGSFENNWNIYKLLAHQKPPKEKSNFSLAILNVGAPAAGMNAAVRSAVRTGISHGHTVYVVHDGFEGLAKGQVQEVGWHDVAGWLGRGGSMLGTKRTLPKGQLESIVENIRIYGIHALLVVGGFEAYEGVLQLVEARGRYEELCIVMCVIPATISNNVPGTDFSLGSDTAVNAAMESCDRIKQSASGTKRRVFIVETMGGYCGYLATVTGIAVGADAAYVFEDPFNIHDLKVNVEHMTEKMKTDIQRGLVLRNEKCHDYYTTEFLYNLYSSEGKGVFDCRTNVLGHLQQGGAPTPFDRNYGTKLGVKAMLWLSEKLREVYRKGRVFANAPDSACVIGLKKKAVAFSPVTELKKDTDFEHRMPREQWWLSLRLMLKMLAQYRISMAAYVSGELEHVTRRTLSMDKGF
B9: DNAJC25 (protein, UniProt Q9H1X3 1-360, looked up)
DnaJ homolog subfamily C …: MGAPLLSPGWGAGAAGRRWWMLLAPLLPALLLVRPAGALVEGLYCGTRDCYEVLGVSRSAGKAEIARAYRQLARRYHPDRYRPQPGDEGPGRTPQSAEEAFLLVATAYETLKDEETRKDYDYMLDHPEEYYSHYYHYYSRRLAPKVDVRVVILVSVCAISVFQFFSWWNSYNKAISYLATVPKYRIQATEIAKQQGLLKKAKEKGKNKKSKEEIRDEEENIIKNIIKSKIDIKGGYQKPQICDLLLFQIILAPFHLCSYIVWYCRWIYNFNIKGKEYGEEERLYIIRKSMKMSKSQFDSLEDHQKETFLKRELWIKENYEVYKQEQEEELKKKLANDPRWKRYRRWMKNEGPGRLTFVDD

The data set deals with BAF complex subunits and histone proteins. Briefly: Mass spectrometry proteomics of purified HA-SS18 WT and HA-SS18-SSX1 complexes (Tables 5A-5E). Also on record: species or system human. As to conditions: HA-SS18WT_NE_peptides: proteins co-purified with HA-SS18 WT from nuclear extract (NE), HEK-293T.
Regarding B1, the “Total (peptides)” value came to 1 and the “Unique (peptides)” value is 1.
For B2, the “Total (peptides)” value is given as 1 and the “Unique (peptides)” value is 1.
On to B3, for which the “Total (peptides)” value was 1 and the “Unique (peptides)” value came to 1.
On to B4, for which the “Total (peptides)” value stood at 1 and the “Unique (peptides)” value is listed as 1.
On to B5, for which the “Total (peptides)” value turned out to be 1 and the “Unique (peptides)” value is 1.
Take B6: the “Total (peptides)” value came to 1 and the “Unique (peptides)” value turned out to be 1.
For the molecule B7, the “Total (peptides)” value is reported as 1 and the “Unique (peptides)” value was found to be 1.
Consider B8, for which the “Total (peptides)” value is on record as 1 and the “Unique (peptides)” value worked out at 1.
Take B9: the “Total (peptides)” value amounted to 1 and the “Unique (peptides)” value is 1.

The values above are taken from patent US20250283871A1, “COMPOSITIONS AND METHODS FOR MODULATING THE INTERACTION BETWEEN SS18-SSX FUSION ONCOPROTEIN AND NUCLEOSOMES” (Dana-Farber Cancer Institute, Inc., priority 2020, published 2025).
